In PMC4040711:
No constants are given. Whether binding was seen depends on the method and setting. In cells and extracts the contact can be indirect. Some entries that bind do so weakly or less than the wild type.

By UniProt entry, the sequences of proteins in these tests, tags left out. Where a name states a change or a piece, a line headed by the entry shows the natural chain unless it says otherwise. Chains listed by the source or under a name are the forms on record and can include a tag or linker.
UniProt P14618: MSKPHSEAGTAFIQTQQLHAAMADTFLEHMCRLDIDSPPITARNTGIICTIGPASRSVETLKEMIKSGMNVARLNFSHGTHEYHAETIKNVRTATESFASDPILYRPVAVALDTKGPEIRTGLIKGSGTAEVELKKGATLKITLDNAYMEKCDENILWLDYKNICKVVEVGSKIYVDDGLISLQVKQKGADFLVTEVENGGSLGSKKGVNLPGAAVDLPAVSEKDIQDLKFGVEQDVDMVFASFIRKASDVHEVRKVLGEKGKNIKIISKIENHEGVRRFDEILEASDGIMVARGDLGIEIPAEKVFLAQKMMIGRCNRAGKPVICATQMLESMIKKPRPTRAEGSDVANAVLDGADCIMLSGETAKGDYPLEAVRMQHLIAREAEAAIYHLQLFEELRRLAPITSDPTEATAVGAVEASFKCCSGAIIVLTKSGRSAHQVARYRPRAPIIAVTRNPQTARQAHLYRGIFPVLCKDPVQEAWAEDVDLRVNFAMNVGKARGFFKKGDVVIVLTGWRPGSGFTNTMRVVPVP
pyruvate kinase muscle isozyme 2 (PKM2), rat (rat (endogenous in NSCs and glioma spheroids)) (P11980, form named): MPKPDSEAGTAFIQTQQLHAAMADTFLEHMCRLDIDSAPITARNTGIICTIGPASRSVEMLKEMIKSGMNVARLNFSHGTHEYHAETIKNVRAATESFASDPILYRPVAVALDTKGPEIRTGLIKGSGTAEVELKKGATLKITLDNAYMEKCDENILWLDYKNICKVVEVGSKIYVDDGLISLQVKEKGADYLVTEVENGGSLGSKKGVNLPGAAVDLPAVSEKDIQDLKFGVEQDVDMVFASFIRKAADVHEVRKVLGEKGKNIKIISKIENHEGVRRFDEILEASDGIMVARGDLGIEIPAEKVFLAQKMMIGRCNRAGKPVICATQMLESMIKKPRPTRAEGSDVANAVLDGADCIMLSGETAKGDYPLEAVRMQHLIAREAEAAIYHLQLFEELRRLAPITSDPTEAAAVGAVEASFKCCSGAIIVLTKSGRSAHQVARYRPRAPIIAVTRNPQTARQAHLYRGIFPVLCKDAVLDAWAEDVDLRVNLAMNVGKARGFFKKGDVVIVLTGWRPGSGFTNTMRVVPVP
UniProt Q01860: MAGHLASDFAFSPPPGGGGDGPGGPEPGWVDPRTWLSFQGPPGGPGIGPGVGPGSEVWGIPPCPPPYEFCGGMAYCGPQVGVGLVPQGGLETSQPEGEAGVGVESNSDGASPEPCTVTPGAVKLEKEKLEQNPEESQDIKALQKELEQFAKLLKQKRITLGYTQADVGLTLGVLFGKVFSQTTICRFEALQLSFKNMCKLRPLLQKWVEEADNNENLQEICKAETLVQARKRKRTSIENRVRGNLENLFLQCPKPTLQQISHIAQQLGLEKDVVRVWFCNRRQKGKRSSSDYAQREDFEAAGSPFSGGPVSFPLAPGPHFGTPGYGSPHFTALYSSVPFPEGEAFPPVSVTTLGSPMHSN
UniProt Q6MG27: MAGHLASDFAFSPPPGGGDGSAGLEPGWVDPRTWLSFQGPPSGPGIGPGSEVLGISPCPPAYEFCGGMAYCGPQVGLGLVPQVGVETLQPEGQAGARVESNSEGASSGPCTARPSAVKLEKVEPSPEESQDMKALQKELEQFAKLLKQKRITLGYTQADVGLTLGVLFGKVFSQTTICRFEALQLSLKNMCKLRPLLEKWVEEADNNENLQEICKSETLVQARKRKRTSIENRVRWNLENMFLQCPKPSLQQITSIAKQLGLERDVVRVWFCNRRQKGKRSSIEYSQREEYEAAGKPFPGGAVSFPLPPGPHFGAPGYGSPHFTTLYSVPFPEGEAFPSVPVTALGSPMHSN

Columns and labels:
[1] = target: pyruvate kinase muscle isozyme 2 (PKM2), human (human (endogenous in primary GBM cultures)) (UniProt P14618); test: proximity ligation; Duolink PLA on fixed human glioma spheroids, control or DCA-treated; hypoxia (5% O2) for HIF-1, normoxia (20% O2) for H3
[2] = target: pyruvate kinase muscle isozyme 2 (PKM2), rat (rat (endogenous in NSCs and glioma spheroids)) (UniProt P11980); test: proximity ligation; Duolink PLA on dissociated, fixed, untreated rat glioma spheroids
[3] = target: pyruvate kinase muscle isozyme 2 (PKM2), rat (rat (endogenous in NSCs and glioma spheroids)) (UniProt P11980); test: proximity ligation; Duolink PLA on dissociated, fixed, DCA-treated rat glioma spheroids
[4] = target: pyruvate kinase muscle isozyme 2 (PKM2), rat (rat (endogenous in NSCs and glioma spheroids)) (UniProt P11980); test: co-IP; PKM2 immunoprecipitated from lysates of DCA-treated rat glioma spheroids (P7sph) (CHAPS buffer, Catch and Release kit), Oct4 by immunoblot
[5] = target: pyruvate kinase muscle isozyme 2 (PKM2), rat (rat (endogenous in NSCs and glioma spheroids)) (UniProt P11980); test: co-IP; PKM2 immunoprecipitated from rat NSC lysates (CHAPS buffer: 10 mM Hepes, 150 mM NaCl, 1% CHAPS, pH 7.4; Catch and Release kit), Oct4 by immunoblot; cells untreated or treated with DCA

binding [1] | binding [2] | binding [3] | binding [4] | binding [5] | Substance
binds |  |  |  |  | octamer-binding transcription factor 4 (Oct4), human (from UniProt Q01860 1-360) (other; other documents disagree on this pair)
 | binds weakly | binds | binds | binds | octamer-binding transcription factor 4 (Oct4), rat (from UniProt Q6MG27 1-352)
